Test results reported in PubChem BioAssay AID216 (DTP/NCI, 2004).
The list is a part of this screen's results and no random one: it gathers tests that were run many times, whatever their T/C, doses with no T/C, and many T/C values between a quarter and a half above the control. Further doses and runs are listed elsewhere. T/C is the treated group as % of the vehicle group. Some entries give survivors of the animals treated and no T/C: the source holds a T/C of zero for them, seemingly a mark for toxic or unscored doses. Some survivor counts are full or nearly so, which does not show that the dose was tolerated: survival well below the control is almost never listed, so the zero probably covers shortened survival too. Counts of survivors are from the toxicity check (mostly the fifth day) where no day follows; animals may have died later. Schedules are NCI's codes, read here as Q, the interval in days (D) or hours (H), X, the number of doses. Some schedule codes hold Z or #, which are not explained here. Some doses were run more than once; the results are listed from low to high. For survival time, this PubChem deposit counts one and a half times the control or more as active, and values a quarter to a half above the control carry no call in these data; other NCI protocols may use other cut-offs.

System: BDF1 mice, P288 leukemia ip, survival T/C
Test: NCI In Vivo Anticancer Drug Screen. Data for tumor model P288 Lymphocytic Leukemia (intraperitoneal) in B6D2F1 (BDF1) mice
Settings: higher T/C = longer survival
Method: The antitumor activity of compounds was measured in mice bearing transplantable tumors. Survival or tumor size were measured and the results are expressed as the measurement made in the treated group (T) divided by the measurement made in the vehicle treated control group (C). The tumor model used in this assay is P288 Lymphocytic Leukemia (intraperitoneal) in B6D2F1 (BDF1) mice

[1] = T/C endpoint: survival time, mean or median, dose: 200.0 mg/kg/injection, schedule: Q01DX010 (ip), vehicle: saline
[2] = T/C endpoint: survival time, mean or median, dose: 50.0 mg/kg/injection, schedule: Q01DX Z (ip), vehicle: carboxymethylcellulose (CMC)
[3] = T/C endpoint: survival time, mean or median, dose: 25.0 mg/kg/injection, schedule: Q01DX Z (ip), vehicle: carboxymethylcellulose (CMC)
[4] = T/C endpoint: survival time, mean or median, dose: 100.0 mg/kg/injection, schedule: Q01DX Z (ip), vehicle: carboxymethylcellulose (CMC)
[5] = T/C endpoint: survival time, mean or median, dose: 200.0 mg/kg/injection, schedule: Q01DX Z (ip), vehicle: carboxymethylcellulose (CMC)

CC/C(=C(/CC)c1ccc(O)cc1)c1ccc(O)cc1 was tested. Which T/C (T/C endpoint: survival time, mean or median, dose: 12.5 mg/kg/injection, schedule: Q01DX010 (sc), vehicle: steroid suspending solution) did it give?
Its T/C is 142 % of control.

What about the T/C (T/C endpoint: survival time, mean or median, dose: 25.0 mg/kg/injection, schedule: Q01DX010 (sc), vehicle: steroid suspending solution) of the same compound?
Its T/C is 128 % of control.

And the survivor count (T/C endpoint: survival time, mean or median, dose: 125.0 mg/kg/injection, schedule: Q01DX Z (sc), vehicle: steroid suspending solution)?
The survivor count was 3 of 6 and 5 of 6.

What about the survivor count (T/C endpoint: survival time, mean or median, dose: 250.0 mg/kg/injection, schedule: Q01DX Z (sc), vehicle: steroid suspending solution) of the same compound?
Its survivor count is 1 of 6 and 5 of 6.

And the survivor count (T/C endpoint: survival time, mean or median, dose: 500.0 mg/kg/injection, schedule: Q01DX Z (sc), vehicle: steroid suspending solution)?
Its survivor count is 1 of 6.

For Nc1c(Br)cc2c(c1Br)Cc1cc([N+](=O)[O-])ccc1-2, which survivor count (T/C endpoint: survival time, mean or median, dose: 250.0 mg/kg/injection, schedule: Q01DX010 (ip), vehicle: saline) is on record?
Its survivor count is 5 of 6.

What does the source list for CN(C)CC(=O)c1ccc(O)c(O)c1?
T/C (T/C endpoint: survival time, mean or median, dose: 31.25 mg/kg/injection, schedule: Q01DX Z (ip), vehicle: saline): 131 % of control; T/C (T/C endpoint: survival time, mean or median, dose: 62.5 mg/kg/injection, schedule: Q01DX Z (ip), vehicle: saline): 131 % of control; T/C (T/C endpoint: survival time, mean or median, dose: 125.0 mg/kg/injection, schedule: Q01DX Z (ip), vehicle: saline): 134 % of control; T/C [1]: 133 % of control; T/C (T/C endpoint: survival time, mean or median, dose: 250.0 mg/kg/injection, schedule: Q01DX Z (ip), vehicle: saline): 148 % of control; T/C (T/C endpoint: survival time, mean or median, dose: 300.0 mg/kg/injection, schedule: Q01DX010 (ip), vehicle: saline): 127 % of control; T/C (T/C endpoint: survival time, mean or median, dose: 450.0 mg/kg/injection, schedule: Q01DX010 (ip), vehicle: saline): 133 % of control; survivor count (T/C endpoint: survival time, mean or median, dose: 1000.0 mg/kg/injection, schedule: Q01DX Z (ip), vehicle: saline): 0 of 6

What does the source list for O=c1[nH]c(=O)n(C2CC(O)C(CO)O2)cc1F (stereo not drawn)?
T/C (T/C endpoint: survival time, mean or median, dose: 40.0 mg/kg/injection, schedule: Q01DX010 (ip), vehicle: saline): 131 % of control; T/C [2]: 134 % of control

Which results are given for CC(=O)Nc1ccc2nc3ccc(NC(C)=O)cc3[n+](-c3ccccc3)c2c1?
T/C (T/C endpoint: survival time, mean or median, dose: 12.5 mg/kg/injection, schedule: Q01DX Z (ip), vehicle: carboxymethylcellulose (CMC)): 130 % of control; T/C [3]: 136 and 137 % of control; survivor count [3]: 6 of 6; T/C [2]: 138 % of control; survivor count [2]: 6 of 6; T/C (T/C endpoint: survival time, mean or median, dose: 100.0 mg/kg/injection, schedule: Q01DX010 (ip), vehicle: saline): 125 % of control; T/C [4]: 142 % of control; survivor count [4]: 6 of 6; T/C [1]: 125 % of control; T/C [5]: 142 % of control; survivor count [5]: 4 of 6; survivor count (T/C endpoint: survival time, mean or median, dose: 800.0 mg/kg/injection, schedule: Q01DX Z (ip), vehicle: carboxymethylcellulose (CMC)): 4 of 6

Which results are given for C=CC(CN1CC1)OC(C)=O (stereo not drawn)?
survivor count (T/C endpoint: survival time, mean or median, dose: 7.5 mg/kg/injection, schedule: Q01DX Z (ip), vehicle: carboxymethylcellulose (CMC)): 3 of 6; survivor count (T/C endpoint: survival time, mean or median, dose: 15.0 mg/kg/injection, schedule: Q01DX Z (ip), vehicle: carboxymethylcellulose (CMC)): 3 of 6

What does the source list for CN1c2c(nc(N)[nH]c2=O)NCC1CCNc1ccc(C(=O)NC(CCC(=O)O)C(=O)O)cc1 (stereo not drawn)?
T/C (T/C endpoint: median survival time, dose: 100.0 mg/kg/injection, schedule: Q01DX009 (ip), vehicle: other): 129 % of control; T/C (T/C endpoint: median survival time, dose: 200.0 mg/kg/injection, schedule: Q01DX009 (ip), vehicle: other): 141 % of control

With Nc1nc(SCc2ccccc2)c2[nH]cnc2n1 as the compound, how does the survivor count (T/C endpoint: survival time, mean or median, dose: 9.4 mg/kg/injection, schedule: Q01DX Z (ip), vehicle: carboxymethylcellulose (CMC)) read?
The survivor count was 6 of 6.

What about the survivor count (T/C endpoint: survival time, mean or median, dose: 16.0 mg/kg/injection, schedule: Q01DX010 (ip), vehicle: saline) of the same compound?
The survivor count was 6 of 6.

And the survivor count (T/C endpoint: survival time, mean or median, dose: 32.0 mg/kg/injection, schedule: Q01DX010 (ip), vehicle: saline)?
The survivor count was 6 of 6.

What about the survivor count (T/C endpoint: survival time, mean or median, dose: 37.5 mg/kg/injection, schedule: Q01DX Z (ip), vehicle: carboxymethylcellulose (CMC)) of the same compound?
The survivor count was 6 of 6.

What about the survivor count (T/C endpoint: survival time, mean or median, dose: 64.0 mg/kg/injection, schedule: Q01DX010 (ip), vehicle: saline) of the same compound?
The survivor count was 6 of 6.

And the survivor count (T/C endpoint: survival time, mean or median, dose: 75.0 mg/kg/injection, schedule: Q01DX Z (ip), vehicle: carboxymethylcellulose (CMC))?
The survivor count was 5 of 6.
